PubChem BioAssay AID1508597, Cure First – 2020
The deposit covers about 2,100 reagents; this is a random part of them. 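Calls flag viability under 80% in either arm, not effects specific to rucaparib; the reference for percent is not stated.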 No sequences are given here. Not stated in the record: the 100% reference.

- Screen: 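Knock-downs altering ovarian cancer cell survival with or without PARP inhibitor rucaparib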 (primary screen)
- Cell system: human ovarian carcinoma lines grown from tumours: OCI-P5x (papillary serous) and OCI-C5x (clear cell)
- Reagent: siRNA pool against human genes, 1.25 pmol siRNA per well
- Duration: 72 h or 96 h, depending on the cell culture
- Conditions: rucaparib 20 µM (about IC30) or vehicle, present until read-out
- Detection: 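Luminescent ATP-based viability assay read 72 or 96 h after transfection, depending on culture, given as normalised percent viability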
- Scale: viability, normalised: higher = more viable cells remaining
- Rule for the call: 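Active when normalised viability falls below 80 percent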
- Calls: active = viability under 80%; inactive = viability 80% or more

gene knocked down | rucaparib or vehicle | cell line | technical replicate | viability, normalised (%) | Outcome
ARFRP1 (ARF related protein 1) | Rucaparib | OCI-C5x (clear cell) | 1 | 80.4 | inactive
ARFRP1 (ARF related protein 1) | Rucaparib | OCI-C5x (clear cell) | 2 | 85.5 | inactive
ARFRP1 (ARF related protein 1) | Rucaparib | OCI-C5x (clear cell) | 3 | 85.7 | inactive
ARFRP1 (ARF related protein 1) | Rucaparib | OCI-P5x (serous) | 1 | 86.4 | inactive
ARFRP1 (ARF related protein 1) | Rucaparib | OCI-P5x (serous) | 2 | 66.9 | active
ARFRP1 (ARF related protein 1) | Rucaparib | OCI-P5x (serous) | 3 | 75.6 | active
ARFRP1 (ARF related protein 1) | Vehicle | OCI-C5x (clear cell) | 1 | 94.7 | inactive
ARFRP1 (ARF related protein 1) | Vehicle | OCI-C5x (clear cell) | 2 | 64 | active
ARFRP1 (ARF related protein 1) | Vehicle | OCI-C5x (clear cell) | 3 | 57 | active
ARFRP1 (ARF related protein 1) | Vehicle | OCI-P5x (serous) | 1 | 80.4 | inactive
ARFRP1 (ARF related protein 1) | Vehicle | OCI-P5x (serous) | 2 | 72 | active
ARFRP1 (ARF related protein 1) | Vehicle | OCI-P5x (serous) | 3 | 60.5 | active
PASK (PAS domain containing serine/threonine kinase) | Rucaparib | OCI-C5x (clear cell) | 1 | 39.8 | active
PASK (PAS domain containing serine/threonine kinase) | Rucaparib | OCI-C5x (clear cell) | 2 | 49.9 | active
PASK (PAS domain containing serine/threonine kinase) | Rucaparib | OCI-C5x (clear cell) | 3 | 43 | active
PASK (PAS domain containing serine/threonine kinase) | Rucaparib | OCI-P5x (serous) | 1 | 43.8 | active
PASK (PAS domain containing serine/threonine kinase) | Rucaparib | OCI-P5x (serous) | 2 | 42.9 | active
PASK (PAS domain containing serine/threonine kinase) | Rucaparib | OCI-P5x (serous) | 3 | 52.4 | active
PASK (PAS domain containing serine/threonine kinase) | Vehicle | OCI-C5x (clear cell) | 1 | 53.6 | active
PASK (PAS domain containing serine/threonine kinase) | Vehicle | OCI-C5x (clear cell) | 2 | 42.5 | active
PASK (PAS domain containing serine/threonine kinase) | Vehicle | OCI-C5x (clear cell) | 3 | 49.4 | active
PASK (PAS domain containing serine/threonine kinase) | Vehicle | OCI-P5x (serous) | 1 | 58.4 | active
PASK (PAS domain containing serine/threonine kinase) | Vehicle | OCI-P5x (serous) | 2 | 50.5 | active
PASK (PAS domain containing serine/threonine kinase) | Vehicle | OCI-P5x (serous) | 3 | 56.9 | active
